The target of this assay is HA-PTEN (human) (UniProt P60484). As to the kind of experiment: anti-PTEN immunoprecipitation from DU145 cells transfected with HA-PTEN, SDS-PAGE, mass-spectrometric peptide sequencing of the bands (association in the precipitate).

Protein sequences, listed by entry. Tags and fused reporters are not part of them. Lines headed by an entry give the natural chain unless they say otherwise; changes in a name come on top. Chains listed by the source or under a name are the forms on record and can include a tag or linker.
UniProt P60484: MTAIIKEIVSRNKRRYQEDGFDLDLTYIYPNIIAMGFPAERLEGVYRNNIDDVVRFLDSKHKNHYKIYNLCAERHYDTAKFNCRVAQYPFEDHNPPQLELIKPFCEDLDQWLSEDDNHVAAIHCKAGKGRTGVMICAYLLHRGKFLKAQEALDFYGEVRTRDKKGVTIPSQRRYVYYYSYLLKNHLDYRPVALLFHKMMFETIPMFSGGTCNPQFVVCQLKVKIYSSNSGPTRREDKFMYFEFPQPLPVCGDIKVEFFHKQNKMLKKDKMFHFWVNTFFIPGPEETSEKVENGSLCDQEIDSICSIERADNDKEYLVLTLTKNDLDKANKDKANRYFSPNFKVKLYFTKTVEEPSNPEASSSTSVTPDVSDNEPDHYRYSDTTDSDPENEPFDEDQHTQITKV
Isoform 2 of DNA repair protein RAD50 (Q92878-2, form named): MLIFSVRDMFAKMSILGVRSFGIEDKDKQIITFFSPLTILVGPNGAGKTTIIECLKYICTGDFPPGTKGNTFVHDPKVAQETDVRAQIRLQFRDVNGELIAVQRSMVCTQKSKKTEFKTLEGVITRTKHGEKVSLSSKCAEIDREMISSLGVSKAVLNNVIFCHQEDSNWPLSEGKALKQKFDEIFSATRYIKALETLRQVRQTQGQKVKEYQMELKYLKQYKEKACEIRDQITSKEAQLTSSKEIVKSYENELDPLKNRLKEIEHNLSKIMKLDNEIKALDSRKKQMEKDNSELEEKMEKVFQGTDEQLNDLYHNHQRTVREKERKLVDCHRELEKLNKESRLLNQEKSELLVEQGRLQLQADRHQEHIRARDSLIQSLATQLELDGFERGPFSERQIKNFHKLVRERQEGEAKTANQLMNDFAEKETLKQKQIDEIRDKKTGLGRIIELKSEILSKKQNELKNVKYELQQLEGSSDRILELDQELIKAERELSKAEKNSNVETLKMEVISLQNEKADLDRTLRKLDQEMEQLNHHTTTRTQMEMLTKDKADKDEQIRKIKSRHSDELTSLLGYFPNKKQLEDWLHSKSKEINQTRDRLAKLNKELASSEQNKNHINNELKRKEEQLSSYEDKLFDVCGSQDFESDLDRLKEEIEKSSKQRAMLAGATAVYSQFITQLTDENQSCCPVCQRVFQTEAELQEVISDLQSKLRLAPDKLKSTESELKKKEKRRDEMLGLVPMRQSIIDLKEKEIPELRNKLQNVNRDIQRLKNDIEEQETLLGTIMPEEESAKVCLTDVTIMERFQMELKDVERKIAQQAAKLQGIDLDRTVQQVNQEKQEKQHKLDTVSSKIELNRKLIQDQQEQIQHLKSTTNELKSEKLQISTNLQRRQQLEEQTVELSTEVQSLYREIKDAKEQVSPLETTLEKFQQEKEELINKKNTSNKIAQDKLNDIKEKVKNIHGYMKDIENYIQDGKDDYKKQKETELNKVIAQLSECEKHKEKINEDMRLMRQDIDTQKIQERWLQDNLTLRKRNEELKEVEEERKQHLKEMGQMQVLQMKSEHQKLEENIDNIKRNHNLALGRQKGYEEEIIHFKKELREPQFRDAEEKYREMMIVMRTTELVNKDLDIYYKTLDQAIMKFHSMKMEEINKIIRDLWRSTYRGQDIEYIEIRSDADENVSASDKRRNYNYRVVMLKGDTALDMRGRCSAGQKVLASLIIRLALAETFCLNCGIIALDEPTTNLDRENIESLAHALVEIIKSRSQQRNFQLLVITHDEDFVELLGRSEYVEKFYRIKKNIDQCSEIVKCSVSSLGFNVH
Isoform p135 of Dynactin subunit 1 (Q14203-2, form named): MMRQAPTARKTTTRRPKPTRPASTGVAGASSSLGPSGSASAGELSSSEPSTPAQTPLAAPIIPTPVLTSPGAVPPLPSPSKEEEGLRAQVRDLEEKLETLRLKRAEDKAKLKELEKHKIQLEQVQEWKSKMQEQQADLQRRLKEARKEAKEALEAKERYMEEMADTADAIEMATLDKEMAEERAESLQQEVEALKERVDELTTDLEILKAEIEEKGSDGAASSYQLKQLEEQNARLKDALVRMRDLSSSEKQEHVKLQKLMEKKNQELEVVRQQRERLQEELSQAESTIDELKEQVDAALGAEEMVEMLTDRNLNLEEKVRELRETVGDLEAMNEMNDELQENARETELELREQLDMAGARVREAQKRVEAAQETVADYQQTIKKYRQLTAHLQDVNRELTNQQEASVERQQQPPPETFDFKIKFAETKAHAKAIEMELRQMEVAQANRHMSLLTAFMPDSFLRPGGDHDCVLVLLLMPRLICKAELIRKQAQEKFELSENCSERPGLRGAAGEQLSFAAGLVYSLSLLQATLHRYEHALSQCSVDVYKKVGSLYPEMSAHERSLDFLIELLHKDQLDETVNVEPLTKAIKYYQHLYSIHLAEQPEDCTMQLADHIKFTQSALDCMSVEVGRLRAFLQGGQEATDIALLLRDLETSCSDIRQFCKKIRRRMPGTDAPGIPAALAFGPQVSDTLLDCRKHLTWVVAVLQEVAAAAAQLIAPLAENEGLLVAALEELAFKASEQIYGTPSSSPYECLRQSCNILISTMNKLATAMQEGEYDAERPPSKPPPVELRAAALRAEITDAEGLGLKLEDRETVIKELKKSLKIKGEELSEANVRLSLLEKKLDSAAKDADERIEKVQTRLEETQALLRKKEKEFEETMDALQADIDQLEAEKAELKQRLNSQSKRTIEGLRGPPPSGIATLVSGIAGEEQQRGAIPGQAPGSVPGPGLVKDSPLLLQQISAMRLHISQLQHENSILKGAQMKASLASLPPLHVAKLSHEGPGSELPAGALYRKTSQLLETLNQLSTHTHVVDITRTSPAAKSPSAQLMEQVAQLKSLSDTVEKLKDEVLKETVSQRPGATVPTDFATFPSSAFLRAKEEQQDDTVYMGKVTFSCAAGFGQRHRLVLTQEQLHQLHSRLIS

The values that follow come from patent US20190374506A1, “COMPOSITIONS AND METHODS FOR TREATING CANCER” (BETH ISREAL DEACONESS MEDICAL CENTER, priority 2016, published 2019).

Results are given in words; binding and its absence hold for the method and conditions named. Some binding calls cover weakened binding; strength is not graded here.

Regarding “Isoform 2 of DNA repair protein RAD50 (from UniProt Q92878-2)”, the binding result was “binds”.

Regarding “Isoform p135 of Dynactin subunit 1 (from UniProt Q14203-2)”, the binding result was “binds”.
